Measured values reported in the supplement of paper PMC4604168 (melanoma cell lines).
This is one part of the list. Repeats are few or missing, and single values can be far off.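 The apoptosis fraction was the count of cleaved-PARP antibody-stained nuclei relative to all DNA-stained nuclei, imaged in 1,536-well plates. Screening doses were set so most cells survived, and baseline and induced cleaved-PARP levels vary greatly across cell lines.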

Key:
Assay in all cases: cleaved PARP positive nuclei fraction relative to DMSO control; melanoma cells; higher = more apoptosis
Conditions in all cases: library dose: low library concentration; 72 h
501Mel = tested on: 501Mel
A101D = tested on: A101D
A2058 = tested on: A2058
A375 = tested on: A375
C32 = tested on: C32
CBRC008 = tested on: CBRC008 (line from a melanoma biopsy)
CBRC013 = tested on: CBRC013 (line from a melanoma biopsy)
CBRC014 = tested on: CBRC014 (line from a melanoma biopsy)
CBRC016 = tested on: CBRC016 (line from a melanoma biopsy)
CBRC017 = tested on: CBRC017 (line from a melanoma biopsy)
COLO792 = tested on: COLO792
COLO800 = tested on: COLO800
COLO829 = tested on: COLO829
G361 = tested on: G361
IPC-298 = tested on: IPC-298
IST-MEL1 = tested on: IST-MEL1
LB2518-MEL = tested on: LB2518-MEL
LOXIMVI = tested on: LOXIMVI
MEL-HO = tested on: MEL-HO

Structure (SMILES) | cleaved PARP positive nuclei fraction (501Mel) | cleaved PARP positive nuclei fraction (A101D) | cleaved PARP positive nuclei fraction (A2058) | cleaved PARP positive nuclei fraction (A375) | cleaved PARP positive nuclei fraction (C32) | cleaved PARP positive nuclei fraction (CBRC008) | cleaved PARP positive nuclei fraction (CBRC013) | cleaved PARP positive nuclei fraction (CBRC014) | cleaved PARP positive nuclei fraction (CBRC016) | cleaved PARP positive nuclei fraction (CBRC017) | cleaved PARP positive nuclei fraction (COLO792) | cleaved PARP positive nuclei fraction (COLO800) | cleaved PARP positive nuclei fraction (COLO829) | cleaved PARP positive nuclei fraction (G361) | cleaved PARP positive nuclei fraction (IPC-298) | cleaved PARP positive nuclei fraction (IST-MEL1) | cleaved PARP positive nuclei fraction (LB2518-MEL) | cleaved PARP positive nuclei fraction (LOXIMVI) | cleaved PARP positive nuclei fraction (MEL-HO)
C[C@]1(c2nc3c(C(N)=O)cccc3[nH]2)CCCN1 [Veliparib] + Cn1cncc1[C@@](N)(c1ccc(Cl)cc1)c1ccc2c(c1)c(-c1cccc(Cl)c1)cc(=O)n2C [tipifarnib] (first compound 1.4 µM, partner dose 0.01 µM) | 114% | 56% | 182% | 224% | 128% | 102% | 154% | 108% | 134% | 109% | 123% | 60% | 67.4% | 113% | 147% | 318% | 113% | 61.3% | 109%
Cn1c(Nc2ccc(C(F)(F)F)cc2)nc2cc(Oc3ccnc(-c4ncc(C(F)(F)F)[nH]4)c3)ccc21 + O=C(O)c1ccc(-c2c[nH]c3ncc(-c4ccccc4)cc23)cc1C1CCCC1 [GSK650394] (first compound 0.08 µM, partner dose 0.16 µM) | 150% | 67.5% | 236% | 297% | 74% | 92.3% | 149% | 116% | 127% | 135% | 571% | 130% | 145% | 156% | 137% | 73.7% | 411% | 90.8% | 504%
CC(C)(C)c1cnc(CSc2cnc(NC(=O)C3CCNCC3)s2)o1 + O=C(Nc1cccc(Cl)c1)Nc1ncc(CCNc2ncnc3ccsc23)s1 [SNS314] (first compound 0.01 µM, partner dose 0.0008 µM) | 238% | 41.2% | 178% | 112% | 100% | 114% | 113% | 90.8% | 140% | 95.2% | 146% | 68.9% | 135% | 187% | 90% | 47.9% | 49.1% | 139% | 98.1%
Nc1cccc2c1CN(C1CCC(=O)NC1=O)C2=O (stereo unspecified) [lenalidomide] + NC(=O)Nc1cc(-c2cccc(F)c2)sc1C(=O)N[C@H]1CCCNC1 [AZD7762] (first compound 1 µM, partner dose 0.02 µM) | 67.3% | 44.7% | 57.9% | 83.8% | 222% | 93.4% | 93% | 103% | 138% | 89.6% | 98.6% | 95.3% | 96.7% | 96.8% | 43.6% | 732% | 14.9% | 44.3% | 145%
COCC[n+]1c2c(n(Cc3cnccn3)c1C)C(=O)c1ccccc1C2=O + O=C(CCCCCCC(=O)Nc1ccccc1)NO [vorinostat] (first compound 0.0004 µM, partner dose 0.08 µM) | 168% | 169% | 22.7% | 20.9% | 36.3% | 1150% | 99.2% | 86.2% | 103% | 92.9% | 111% | 45.6% | 158% | 79.3% | 46.2% | 119% | 49.1% | 228% | 137%
C=CCn1c(=O)c2cnc(Nc3ccc(N4CCN(C)CC4)cc3)nc2n1-c1cccc(C(C)(C)O)n1 + Cn1cncc1[C@@](N)(c1ccc(Cl)cc1)c1ccc2c(c1)c(-c1cccc(Cl)c1)cc(=O)n2C [tipifarnib] (first compound 0.02 µM, partner dose 0.01 µM) | 114% | 57.8% | 120% | 678% | 59.5% | 226% | 108% | 123% | 117% | 143% | 82% | 62.5% | 68.6% | 137% | 137% | 152% | 62.8% | 73.5% | 92.9%
C=CCNC1=C2C[C@@H](C)C[C@H](OC)[C@H](O)[C@@H](C)/C=C(\C)[C@H](OC(N)=O)[C@@H](OC)/C=C\C=C(/C)C(=O)NC(=CC1=O)C2=O [Tanespimycin] + CO[C@@H]1[C@H](N(C)C(=O)c2ccccc2)C[C@H]2O[C@]1(C)n1c3ccccc3c3c4c(c5c6ccccc6n2c5c31)C(=O)NC4 [Midostaurin] (first compound 0.002 µM, partner dose 0.08 µM) | 95.3% | 66.6% | 68.4% | 43.5% | 187% | 97.6% | 102% | 83.7% | 116% | 89.8% | 131% | 77.4% | 107% | 108% | 93.9% | 209% | 44.6% | 53.3% | 99.7%
CC1(C)NC(=O)N(c2ccc([N+](=O)[O-])c(C(F)(F)F)c2)C1=O [nilutamide] + CC(C)(C)c1cnc(CSc2cnc(NC(=O)C3CCNCC3)s2)o1 [SNS-032] (first compound 1 µM, partner dose 0.01 µM) | 80.3% | 44% | 104% | 16.8% | 111% | 135% | 84.1% | 101% | 183% | 76.2% | 93% | 100% | 97.1% | 144% | 86% | 104% | 91.6% | 111% | 65.2%
Cc1nc(Nc2ncc(C(=O)Nc3c(C)cccc3Cl)s2)cc(N2CCN(CCO)CC2)n1 [dasatanib] + O=C(Nc1cccc(Cl)c1)Nc1ncc(CCNc2ncnc3ccsc23)s1 [SNS314] (first compound 0.004 µM, partner dose 0.0008 µM) | 165% | 267% | 143% | 143% | 269% | 118% | 87.4% | 76.2% | 50.9% | 181% | 227% | 110% | 197% | 117% | 549% | 39.8% | 151% | 59.2% | 165%

Taken from above:
Value of COCC[n+]1c2c(n(Cc3cnccn3)c1C)C(=O)c1ccccc1C2=O + O=C(CCCCCCC(=O)Nc1ccccc1)NO [vorinostat] (first compound 0.0004 µM, partner dose 0.08 µM) under cleaved PARP positive nuclei fraction (IPC-298): 46.2%
Value of Nc1cccc2c1CN(C1CCC(=O)NC1=O)C2=O (stereo unspecified) [lenalidomide] + NC(=O)Nc1cc(-c2cccc(F)c2)sc1C(=O)N[C@H]1CCCNC1 [AZD7762] (first compound 1 µM, partner dose 0.02 µM) under cleaved PARP positive nuclei fraction (CBRC016): 138%
